In publication PMC7053772, “Characterization and assembly of the Pseudomonas aeruginosa aspartate transcarbamoylase-pseudo dihydroorotase complex” (PLoS ONE, 2020):
No constants are given. Whether binding was seen depends on the method and setting. Some entries that bind do so weakly or less than the wild type.

Target: T1, P. aeruginosa ATCase without the first 11 residues (Pseudomonas aeruginosa) (UniProt Q59653)
T1 sequence: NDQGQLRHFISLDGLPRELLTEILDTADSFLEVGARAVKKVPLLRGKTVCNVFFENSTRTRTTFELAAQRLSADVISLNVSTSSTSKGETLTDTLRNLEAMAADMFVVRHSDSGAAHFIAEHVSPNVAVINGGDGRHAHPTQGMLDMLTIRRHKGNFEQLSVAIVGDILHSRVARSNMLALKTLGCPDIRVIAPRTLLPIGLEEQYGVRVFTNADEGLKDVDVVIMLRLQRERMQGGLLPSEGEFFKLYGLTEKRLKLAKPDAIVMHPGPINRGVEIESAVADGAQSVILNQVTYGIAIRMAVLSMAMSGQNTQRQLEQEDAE
Assay: co-expression and co-purification, with ATCase activity of the product; mutant ATCase constructs co-transformed and co-purified with the pyrX gene encoding pDHO in E. coli

B1: Pseudomonas aeruginosa pseudo dihydroorotase (natural protein, Pseudomonas aeruginosa (strain PAO1), UniProt Q51551 1-423, looked up)
chain: MTISIRGARVIDPASDLDQVGDLHIEAGKIVAIGAAPAGFSAQKTLDGAGLVAAPGLVDLSVALREPGYGRKGNVESETRAAAAGGTTSLCCPPYTRPVLDTPAVAELILDRAREAGNAKVYPIGALTRGFGGEQLSELVALRDTGCVAFTNGLHGFASNRILRRALEYAATFDLTVIFTSQDTDLAEGGLAHEGPTASFLGLAGIPETAETVALARNLLLVEQSGVRAHFSQLTSARGIELVAQAQARGLPVTCDVALYQLILTDEALVGFSSLYHVQPPLRTRADREALREAVKNGVVQAIASHHQPHEADAKNAPFAATEPGISGAELLLPLAMTLVQDGLLDLPTLLARLSHGPAQALRLPAGRLAVGQAADLVLFDPQGSTLAGESWYSKGQNSPFVGHCLPGRVRYTLVDGHLTHEG
notes: Dimer by size exclusion chromatography; also called pDHO; pseudo-DHO; source: also co-transformed and co-purified with mutant ATCases
binding: binds
